Measured values taken from PubChem BioAssay AID1508600 (Functional Genomics Laboratory (NCATS/FGL), 2020).
Hit rate of the full screen: of about 53,000 sequences, about 3,700 (7%) were called active.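 How the source made its calls: active means gene knockdowns whose robust z-score for IL-1 alpha signal is at least 2 or at most -2, so actives lie on both sides; inactive means the rest.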 Some of the results follow.

Experiment: Components of the Cytosolic LPS Sensing Pathway: Gene Identification via Genome-wide siRNA Screen;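 further: robust z of the log signal after scaling to non-targeting control siRNA wells of the plate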
Settings: RAW264.7 macrophages, IL-1a HTRF, actives lie on both sides, screened at 100 nM (by protocol), cells primed 5 h with Pam3CSK4 first
Summary of the method: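 Three distinct siRNAs per gene were tested singly at 100 nM in RAW264.7 macrophages. Following Pam3CSK4 priming and 24 hour LipidA transfection, IL-1a secretion was read by HTRF.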

Row | Sequence | z-score
1 | GGUUGUUAUGGUCUCAUAUTT against Lrrc40 | inactive: -0.62
2 | GGUUCAGAAUCAAUACGAGTT against Krt2 | inactive: -0.909
3 | GGAGAAACUGGCAGACCUUTT against Washc3 | inactive: -0.388
4 | GCCUAACGGAGAGGUAUUUTT against Gal3st1 | inactive: -0.505
5 | GGCAAGGAUGAUGUCUUCGTT against Upk1a | inactive: -1.33
6 | GUUCUUACACCCAUCUUGATT against Olfr1414 | inactive: -0.814
7 | GCAAUAACCCAAUUCCUGATT against Phex | inactive: 0.179
8 | GCAUAGAUGAAGCAAUACUTT against Ugp2 | inactive: -0.353
9 | GGCAUUGCAUGUGCACGAUTT against Ror1 | inactive: -0.867
10 | GGCAGGAGCAAAACAUUUUTT against Olfr1111 | inactive: 1.58
11 | GGUCCUCAGCAGUCAUCAUTT against Sprr2h | inactive: -1.55
12 | GGCAACAAAUCAAAGCAGCTT against Anxa7 | inactive: 1.4
13 | GGUUUUUCAAACAAGAGCATT against Slc16a10 | inactive: -1.05
14 | GGGACUUUAGAUGAAAAAATT against Efcab1 | inactive: 0.318
15 | GGGCUGUUCUAAUUCCUUCTT against Il17f | inactive: 1.73
16 | GCUUUAUUCCUACCGGGAUTT against Dgat1 | inactive: 0.557
17 | GGAGAUAUUUUUCUUGUCCTT against Vcp | inactive: -1.31
18 | GGAAUUUGUAAAUUUCCGATT against Nipsnap2 | inactive: 0.0708
19 | GGCUCAGUAAGGACUCUGATT against Tac2 | inactive: 1.24
20 | GGAGGAAAAAAAGUGAAGATT against Ovol2 | inactive: 0.175
21 | GGUGAAACGCAAAAUAUUCTT against Klkb1 | inactive: -0.0472
22 | GCCAACGCAGCAAAAGCUCTT against Rsrp1 | inactive: 0.0495
23 | CGUAUCAGAUCGGGACUUUTT against Ifnk | inactive: 1.07
24 | CCAUUCUACACUUUUCCACTT against Krtap1-5 | inactive: -0.909
25 | GGACUCAUUUGUGAACAGCTT against Agap3 | inactive: 0.532
26 | GGCCUUUCAGACUGUAUUGTT against Npr2 | inactive: 0.584
27 | GGCAAAAUCGUGGUUUCACTT against Cd53 | inactive: -0.321
28 | GCGCAUACAGGAAUUUUUATT against Helb | inactive: -0.56
29 | UAUUGUCACCGUCUUAGGCTT against Olfr1028 | active: -2.84
30 | CCUCCCAUGGUUCUUUCGUTT against Atp5g2 | inactive: 0.514

An excerpt of these results, comma-delimited.
Row,Sequence,z-score
11,GGUCCUCAGCAGUCAUCAUTT against Sprr2h,inactive: -1.55
12,GGCAACAAAUCAAAGCAGCTT against Anxa7,inactive: 1.4
